Laboratory results published in the supplement of paper PMC10849652.
Some of the results follow.

By UniProt entry, the sequences of proteins in these tests, tags left out. Where a name states a change or a piece, a line headed by the entry shows the natural chain unless it says otherwise.
UniProt Q8TB37: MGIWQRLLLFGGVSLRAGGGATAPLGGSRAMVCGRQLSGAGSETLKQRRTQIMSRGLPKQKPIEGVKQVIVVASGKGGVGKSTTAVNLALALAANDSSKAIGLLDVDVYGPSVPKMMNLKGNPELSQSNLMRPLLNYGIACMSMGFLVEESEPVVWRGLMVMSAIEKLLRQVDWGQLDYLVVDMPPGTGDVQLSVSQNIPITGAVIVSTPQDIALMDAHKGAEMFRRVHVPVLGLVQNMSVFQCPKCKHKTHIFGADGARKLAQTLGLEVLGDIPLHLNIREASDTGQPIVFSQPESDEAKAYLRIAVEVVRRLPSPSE
UniProt Q8N6M0: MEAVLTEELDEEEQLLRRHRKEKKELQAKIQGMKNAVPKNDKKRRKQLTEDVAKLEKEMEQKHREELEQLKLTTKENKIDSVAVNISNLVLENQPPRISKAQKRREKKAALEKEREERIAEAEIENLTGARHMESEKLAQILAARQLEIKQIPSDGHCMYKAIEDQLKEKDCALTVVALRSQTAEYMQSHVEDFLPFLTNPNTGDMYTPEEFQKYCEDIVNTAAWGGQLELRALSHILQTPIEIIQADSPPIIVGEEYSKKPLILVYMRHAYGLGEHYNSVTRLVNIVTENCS
UniProt Q96FW1, whole entry, looked up: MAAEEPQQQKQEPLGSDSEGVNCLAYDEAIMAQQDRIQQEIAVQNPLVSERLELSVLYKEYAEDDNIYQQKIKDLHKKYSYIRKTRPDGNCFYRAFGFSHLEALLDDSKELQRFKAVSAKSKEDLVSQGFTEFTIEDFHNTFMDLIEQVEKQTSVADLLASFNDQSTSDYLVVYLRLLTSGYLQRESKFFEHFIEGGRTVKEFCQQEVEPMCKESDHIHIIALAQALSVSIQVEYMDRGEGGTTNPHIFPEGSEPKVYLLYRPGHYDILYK
UniProt P57740: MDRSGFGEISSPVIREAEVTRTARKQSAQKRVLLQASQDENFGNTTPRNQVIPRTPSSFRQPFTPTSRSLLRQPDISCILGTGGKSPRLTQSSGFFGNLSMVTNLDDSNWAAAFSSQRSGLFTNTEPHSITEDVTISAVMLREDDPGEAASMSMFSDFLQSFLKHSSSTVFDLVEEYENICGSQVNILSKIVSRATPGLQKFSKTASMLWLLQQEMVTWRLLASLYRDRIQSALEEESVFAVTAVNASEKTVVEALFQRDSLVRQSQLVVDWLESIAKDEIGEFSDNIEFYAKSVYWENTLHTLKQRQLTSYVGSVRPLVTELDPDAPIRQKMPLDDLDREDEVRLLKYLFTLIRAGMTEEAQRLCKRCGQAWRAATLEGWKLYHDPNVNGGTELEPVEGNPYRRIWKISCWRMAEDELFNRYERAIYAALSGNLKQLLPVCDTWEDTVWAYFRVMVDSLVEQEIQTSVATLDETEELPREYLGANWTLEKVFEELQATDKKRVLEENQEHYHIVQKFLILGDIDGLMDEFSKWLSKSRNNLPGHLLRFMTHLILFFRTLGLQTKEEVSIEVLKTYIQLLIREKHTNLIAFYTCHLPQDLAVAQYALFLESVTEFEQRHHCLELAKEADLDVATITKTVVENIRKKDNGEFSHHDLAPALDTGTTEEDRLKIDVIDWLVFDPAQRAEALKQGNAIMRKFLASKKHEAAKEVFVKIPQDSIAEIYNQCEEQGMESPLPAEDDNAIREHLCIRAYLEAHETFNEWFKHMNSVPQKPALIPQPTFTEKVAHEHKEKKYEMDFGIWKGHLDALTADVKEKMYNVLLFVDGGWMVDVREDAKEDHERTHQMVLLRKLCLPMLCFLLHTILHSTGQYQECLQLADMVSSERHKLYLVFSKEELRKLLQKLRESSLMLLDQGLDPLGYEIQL
UniProt Q9NPF4: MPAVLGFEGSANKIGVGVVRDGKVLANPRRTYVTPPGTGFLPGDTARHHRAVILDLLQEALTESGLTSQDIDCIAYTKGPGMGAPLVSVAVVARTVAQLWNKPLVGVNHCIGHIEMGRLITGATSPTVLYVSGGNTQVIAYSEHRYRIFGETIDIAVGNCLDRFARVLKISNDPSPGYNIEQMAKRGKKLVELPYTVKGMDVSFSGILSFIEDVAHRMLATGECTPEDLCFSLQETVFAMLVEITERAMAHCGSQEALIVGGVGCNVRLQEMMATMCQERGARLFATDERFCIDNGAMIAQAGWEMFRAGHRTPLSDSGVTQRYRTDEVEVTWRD
UniProt Q01968: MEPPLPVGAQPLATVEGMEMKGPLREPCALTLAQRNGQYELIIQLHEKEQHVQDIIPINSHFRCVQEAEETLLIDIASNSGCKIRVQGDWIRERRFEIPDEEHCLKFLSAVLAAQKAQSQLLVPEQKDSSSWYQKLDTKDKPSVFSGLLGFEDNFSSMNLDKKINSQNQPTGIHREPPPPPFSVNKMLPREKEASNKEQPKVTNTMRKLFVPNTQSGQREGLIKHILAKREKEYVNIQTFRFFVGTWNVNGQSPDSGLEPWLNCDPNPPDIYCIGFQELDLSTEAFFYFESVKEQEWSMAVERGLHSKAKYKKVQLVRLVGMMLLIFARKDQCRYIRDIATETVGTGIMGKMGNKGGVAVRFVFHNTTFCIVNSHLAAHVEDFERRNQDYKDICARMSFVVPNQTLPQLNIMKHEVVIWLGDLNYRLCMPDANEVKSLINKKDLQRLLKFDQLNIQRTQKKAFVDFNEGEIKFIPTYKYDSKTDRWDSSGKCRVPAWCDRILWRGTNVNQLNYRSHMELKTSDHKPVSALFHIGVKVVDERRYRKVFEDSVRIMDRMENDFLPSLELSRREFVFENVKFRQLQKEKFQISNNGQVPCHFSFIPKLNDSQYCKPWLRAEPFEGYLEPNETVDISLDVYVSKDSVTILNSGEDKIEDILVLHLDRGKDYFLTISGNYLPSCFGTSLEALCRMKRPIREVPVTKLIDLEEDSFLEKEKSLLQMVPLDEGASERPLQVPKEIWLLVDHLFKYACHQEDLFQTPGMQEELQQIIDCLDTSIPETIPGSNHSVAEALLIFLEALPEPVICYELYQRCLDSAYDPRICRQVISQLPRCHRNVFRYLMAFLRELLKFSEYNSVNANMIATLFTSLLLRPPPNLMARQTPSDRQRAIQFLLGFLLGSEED
UniProt Q8WUM0: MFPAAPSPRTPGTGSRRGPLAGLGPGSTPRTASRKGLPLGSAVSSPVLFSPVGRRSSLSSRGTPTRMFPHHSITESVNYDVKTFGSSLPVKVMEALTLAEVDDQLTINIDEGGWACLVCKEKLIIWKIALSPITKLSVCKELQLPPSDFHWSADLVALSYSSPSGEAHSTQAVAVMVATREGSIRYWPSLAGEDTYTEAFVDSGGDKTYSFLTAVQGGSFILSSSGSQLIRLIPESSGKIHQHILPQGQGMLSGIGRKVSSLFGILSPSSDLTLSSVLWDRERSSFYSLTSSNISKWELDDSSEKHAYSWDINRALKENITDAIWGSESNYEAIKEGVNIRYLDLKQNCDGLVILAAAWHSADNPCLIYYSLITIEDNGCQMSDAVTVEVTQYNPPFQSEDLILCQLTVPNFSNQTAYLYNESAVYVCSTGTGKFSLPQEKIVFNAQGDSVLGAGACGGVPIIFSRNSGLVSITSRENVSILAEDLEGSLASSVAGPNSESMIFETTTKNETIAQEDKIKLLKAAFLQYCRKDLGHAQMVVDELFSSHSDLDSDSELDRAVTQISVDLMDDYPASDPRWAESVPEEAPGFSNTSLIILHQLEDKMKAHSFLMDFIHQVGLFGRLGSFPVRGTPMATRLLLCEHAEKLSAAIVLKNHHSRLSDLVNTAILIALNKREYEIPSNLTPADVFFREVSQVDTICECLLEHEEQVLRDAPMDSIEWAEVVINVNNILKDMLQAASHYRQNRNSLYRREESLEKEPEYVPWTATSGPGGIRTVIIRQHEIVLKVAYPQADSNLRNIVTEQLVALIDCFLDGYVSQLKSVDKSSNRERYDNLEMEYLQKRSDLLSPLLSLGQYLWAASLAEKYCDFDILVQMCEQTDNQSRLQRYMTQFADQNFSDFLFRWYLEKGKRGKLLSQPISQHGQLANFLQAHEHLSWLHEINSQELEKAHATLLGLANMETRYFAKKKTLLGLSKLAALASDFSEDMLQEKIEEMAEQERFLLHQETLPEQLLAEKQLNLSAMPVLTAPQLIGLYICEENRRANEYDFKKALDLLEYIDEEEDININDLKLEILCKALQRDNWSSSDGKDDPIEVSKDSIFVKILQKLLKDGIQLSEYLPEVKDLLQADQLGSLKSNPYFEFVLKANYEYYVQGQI
UniProt Q9NTK5, whole entry, looked up: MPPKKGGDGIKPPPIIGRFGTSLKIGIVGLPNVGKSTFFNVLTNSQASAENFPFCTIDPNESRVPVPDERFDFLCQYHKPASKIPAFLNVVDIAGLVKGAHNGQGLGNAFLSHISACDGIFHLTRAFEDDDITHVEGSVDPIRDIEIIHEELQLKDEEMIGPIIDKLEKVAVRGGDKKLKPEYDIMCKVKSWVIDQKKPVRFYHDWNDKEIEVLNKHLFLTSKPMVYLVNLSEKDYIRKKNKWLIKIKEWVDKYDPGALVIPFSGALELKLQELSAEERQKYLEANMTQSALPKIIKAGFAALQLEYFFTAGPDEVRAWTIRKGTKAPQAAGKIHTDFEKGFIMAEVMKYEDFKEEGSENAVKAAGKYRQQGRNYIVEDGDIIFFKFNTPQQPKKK
UniProt Q96G74: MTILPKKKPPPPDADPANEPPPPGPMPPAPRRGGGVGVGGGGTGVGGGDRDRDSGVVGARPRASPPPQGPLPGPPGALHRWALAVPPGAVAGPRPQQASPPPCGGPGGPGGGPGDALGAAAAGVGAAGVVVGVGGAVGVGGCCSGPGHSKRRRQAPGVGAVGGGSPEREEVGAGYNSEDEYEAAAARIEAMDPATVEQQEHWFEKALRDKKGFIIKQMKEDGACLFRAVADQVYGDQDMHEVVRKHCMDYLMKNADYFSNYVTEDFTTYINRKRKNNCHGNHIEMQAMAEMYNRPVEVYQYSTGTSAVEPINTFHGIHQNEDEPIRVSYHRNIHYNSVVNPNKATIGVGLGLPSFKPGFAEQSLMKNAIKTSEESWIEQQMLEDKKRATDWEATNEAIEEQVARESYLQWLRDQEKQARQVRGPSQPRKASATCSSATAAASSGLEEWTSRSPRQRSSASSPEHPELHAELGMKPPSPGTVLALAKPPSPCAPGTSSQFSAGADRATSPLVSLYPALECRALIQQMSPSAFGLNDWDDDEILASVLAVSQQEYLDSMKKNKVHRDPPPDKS
UniProt Q9NX40: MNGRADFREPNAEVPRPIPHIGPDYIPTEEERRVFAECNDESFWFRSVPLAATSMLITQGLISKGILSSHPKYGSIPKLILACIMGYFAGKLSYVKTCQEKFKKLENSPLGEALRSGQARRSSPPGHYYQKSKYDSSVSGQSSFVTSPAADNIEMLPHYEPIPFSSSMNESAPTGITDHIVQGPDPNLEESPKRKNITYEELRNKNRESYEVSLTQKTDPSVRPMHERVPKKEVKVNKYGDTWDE
UniProt Q8N543: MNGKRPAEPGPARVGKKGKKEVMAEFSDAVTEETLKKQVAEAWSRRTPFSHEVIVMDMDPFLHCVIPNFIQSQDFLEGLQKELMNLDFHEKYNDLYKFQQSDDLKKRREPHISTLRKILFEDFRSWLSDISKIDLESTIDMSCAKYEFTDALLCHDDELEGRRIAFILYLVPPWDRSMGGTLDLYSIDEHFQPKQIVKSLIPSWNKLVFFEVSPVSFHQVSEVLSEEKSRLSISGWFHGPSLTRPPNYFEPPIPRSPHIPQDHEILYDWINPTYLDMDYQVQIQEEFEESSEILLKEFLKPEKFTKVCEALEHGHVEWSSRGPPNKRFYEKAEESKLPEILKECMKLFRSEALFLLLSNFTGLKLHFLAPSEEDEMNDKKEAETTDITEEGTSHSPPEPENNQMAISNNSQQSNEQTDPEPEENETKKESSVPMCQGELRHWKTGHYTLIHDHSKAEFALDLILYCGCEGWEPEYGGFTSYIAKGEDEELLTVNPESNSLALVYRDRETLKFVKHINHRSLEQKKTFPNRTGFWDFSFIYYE
UniProt P53384: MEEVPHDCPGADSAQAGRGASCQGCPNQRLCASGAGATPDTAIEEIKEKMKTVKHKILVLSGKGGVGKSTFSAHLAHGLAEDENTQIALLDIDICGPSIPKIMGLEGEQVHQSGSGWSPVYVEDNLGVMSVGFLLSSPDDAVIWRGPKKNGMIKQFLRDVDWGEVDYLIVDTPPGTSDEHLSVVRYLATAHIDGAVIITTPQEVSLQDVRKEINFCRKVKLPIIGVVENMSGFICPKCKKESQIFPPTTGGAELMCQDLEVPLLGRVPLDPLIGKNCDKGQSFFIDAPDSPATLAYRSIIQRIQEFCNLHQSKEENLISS
UniProt O43809, whole entry, looked up: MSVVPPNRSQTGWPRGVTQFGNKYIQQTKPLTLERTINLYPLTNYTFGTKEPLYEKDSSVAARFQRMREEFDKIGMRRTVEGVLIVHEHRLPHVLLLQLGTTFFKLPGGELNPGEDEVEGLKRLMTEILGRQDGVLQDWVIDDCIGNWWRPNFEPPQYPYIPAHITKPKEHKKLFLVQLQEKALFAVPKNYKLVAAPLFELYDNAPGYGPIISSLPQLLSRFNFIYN

Legend:
Experiment in all cases: log2 fold change, soluble protein after heating vs DMSO (PISA); higher = thermal stabilisation; K562 cells, 10 uM, 30 min; active = over 0.2 and 3.5 SD of the protein, either way, in both replicates (recomputed)
bafetinib = compound: Cc1ccc(NC(=O)c2ccc(CN3CC[C@H](N(C)C)C3)c(C(F)(F)F)c2)cc1Nc1nccc(-c2cncnc2)n1 [bafetinib]
Procedure, shortened: (§1)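 K562 cells at 2×10^6 cells/mL were given 10 μM compound for 30 min. Aliquots then went through 3 min of heating across 48°C-58°C, were pooled, and were extracted in PBS with 0.5% NP-40 at 4°C, and the supernatant after 21,000xg for 90 min was quantified by TMTpro 16plex LC-MS/MS with channel sums equalised. Thermal stability relative to control samples, from duplicates, is given as log2 fold change.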

[1] = compound: Cc1cccc(CC(=O)N2CCc3c2ccc(-c2cn(C)c4ncnc(N)c24)c3F)n1
Procedure, shortened: as §1

nilotinib = compound: Cc1cn(-c2cc(NC(=O)c3ccc(C)c(Nc4nccc(-c5cccnc5)n4)c3)cc(C(F)(F)F)c2)cn1 [nilotinib]
Procedure, shortened: as §1

[2] = compound: Cc1nc(Nc2n[nH]c3c2CN(C(=O)N[C@H](CN(C)C)c2ccccc2)C3(C)C)c2sccc2n1
Procedure, shortened: as §1

dasatinib = compound: Cc1nc(Nc2ncc(C(=O)Nc3c(C)cccc3Cl)s2)cc(N2CCN(CCO)CC2)n1 [dasatinib]
Procedure, shortened: as §1

[3] = compound: Cc1ncc(-c2ccnc(Nc3ccc(S(C)(=O)=O)cc3)n2)n1C(C)C
Procedure, shortened: as §1

[4] = compound: Cn1cc(-c2ccc3c(c2)CCN3C(=O)Cc2cccc(C(F)(F)F)c2)c2c(N)ncnc21
Procedure, shortened: as §1

[5] = compound: Cn1cc(-c2ccc3nnc(C(F)(F)c4ccc5ncccc5c4)n3n2)cn1
Procedure, shortened: as §1

tipifarnib = compound: Cn1cncc1[C@@](N)(c1ccc(Cl)cc1)c1ccc2c(c1)c(-c1cccc(Cl)c1)cc(=O)n2C [tipifarnib]
Procedure, shortened: as §1

mubritinib = compound: FC(F)(F)c1ccc(/C=C/c2nc(COc3ccc(CCCCn4ccnn4)cc3)co2)cc1 [mubritinib]
Procedure, shortened: as §1

[6] = compound: NC(=O)Nc1cc(-c2cccc(F)c2)sc1C(=O)N[C@H]1CCCNC1
Procedure, shortened: as §1

[7] = compound: NC(=O)c1cnc(N[C@@H]2CCCC[C@@H]2N)nc1Nc1cccc(-n2nccn2)c1
Procedure, shortened: as §1

[8] = compound: NC1(c2ccc(-c3nc4ccn5c(=O)[nH]nc5c4cc3-c3ccccc3)cc2)CCC1
Procedure, shortened: as §1

[9] = compound: NCC(=O)Nc1ccc(-n2nc(C(F)(F)F)cc2-c2ccc3c(ccc4ccccc43)c2)cc1
Procedure, shortened: as §1

entinostat = compound: Nc1ccccc1NC(=O)c1ccc(CNC(=O)OCc2cccnc2)cc1 [entinostat]
Procedure, shortened: as §1

vorinostat = compound: O=C(CCCCCCC(=O)Nc1ccccc1)NO [vorinostat]
Procedure, shortened: as §1

citarinostat = compound: O=C(CCCCCCNC(=O)c1cnc(N(c2ccccc2)c2ccccc2Cl)nc1)NO [citarinostat]
Procedure, shortened: as §1

silmitasertib = compound: O=C(O)c1ccc2c(c1)nc(Nc1cccc(Cl)c1)c1ccncc12 [silmitasertib]
Procedure, shortened: as §1

[10] = compound: O=C1NC(=O)C(c2cnc3ccccn23)=C1c1cn2c3c(cc(F)cc13)CN(C(=O)N1CCCCC1)CC2
Procedure, shortened: as §1

[11] = compound: c1cc(OCCN2CCCCC2)cc(-c2n[nH]c3ccc(-c4nnc[nH]4)cc23)c1
Procedure, shortened: as §1

Target | log2 fold change (bafetinib) | log2 fold change [1] | log2 fold change (nilotinib) | log2 fold change [2] | log2 fold change (dasatinib) | log2 fold change [3] | log2 fold change [4] | log2 fold change [5] | log2 fold change (tipifarnib) | log2 fold change (mubritinib) | log2 fold change [6] | log2 fold change [7] | log2 fold change [8] | log2 fold change [9] | log2 fold change (entinostat) | log2 fold change (vorinostat) | log2 fold change (citarinostat) | log2 fold change (silmitasertib) | log2 fold change [10] | log2 fold change [11]
NUBPL (UniProt Q8TB37) | inactive: -0.076 | inactive: -0.005 | inactive: -0.034 | inactive: -0.155 | inactive: 0.074 | inactive: 0.055 | inactive: 0.103 | inactive: 0.028 | inactive: -0.021 | inactive: 0.086 | inactive: 0.101 | inactive: 0.014 | inactive: 0.017 | inactive: -0.036 | inactive: 0.028 | inactive: -0.034 | inactive: 0.1 | inactive: 0.069 | inactive: 0.03 | inactive: -0.013
OTUD6B (UniProt Q8N6M0) | inactive: -0.014 | inactive: 0.105 | inactive: -0.114 | inactive: -0.067 | inactive: -0.142 | inactive: -0.031 | inactive: 0.044 | inactive: 0.067 | inactive: -0.039 | inactive: -0.02 | inactive: -0.122 | inactive: -0.121 | inactive: -0.167 | inactive: -0.064 | inactive: 0.022 | inactive: 0.215 | inactive: -0.013 | inactive: 0.059 | inactive: -0.065 | inactive: -0.053
OTUB1 (UniProt Q96FW1) | inactive: -0.038 | inactive: 0.047 | inactive: -0.067 | inactive: -0.016 | inactive: 0.01 | inactive: -0.01 | inactive: 0.03 | inactive: -0.038 | inactive: -0.051 | inactive: 0.031 | inactive: -0.012 | inactive: -0.014 | inactive: -0.113 | inactive: -0.059 | inactive: 0.004 | inactive: 0.064 | inactive: 0.066 | inactive: -0.049 | inactive: -0.066 | inactive: -0.019
NUP107 (UniProt P57740) | inactive: -0.013 | active: 0.716 | inactive: -0.027 | inactive: -0.012 | inactive: -0.12 | inactive: -0.145 | inactive: -0.077 | inactive: -0.008 | inactive: -0.026 | inactive: -0.036 | inactive: -0.009 | inactive: -0.022 | inactive: 0.056 | inactive: -0.032 | inactive: -0.039 | inactive: 0.416 | inactive: 0.016 | inactive: 0.085 | inactive: 0.045 | inactive: -0.109
OSGEP (UniProt Q9NPF4) | inactive: -0.037 | inactive: 0.026 | inactive: 0.001 | inactive: -0.003 | inactive: 0.002 | inactive: 0.058 | inactive: 0.029 | inactive: 0 | inactive: 0.001 | inactive: 0.033 | inactive: -0.012 | inactive: 0.006 | inactive: -0.018 | inactive: -0.028 | inactive: -0.025 | inactive: -0.017 | inactive: -0.026 | inactive: -0.008 | inactive: -0.027 | inactive: -0.064
OCRL (UniProt Q01968) | inactive: 0.121 | inactive: 0.034 | inactive: -0.118 | inactive: 0.142 | inactive: 0.142 | inactive: 0.027 | inactive: 0.06 | inactive: -0.002 | inactive: -0.139 | inactive: -0.048 | inactive: -0.07 | inactive: 0.011 | inactive: -0.046 | inactive: 0.024 | inactive: 0.01 | inactive: 0.018 | inactive: 0.12 | inactive: -0.182 | inactive: 0.024 | inactive: -0.1
NUP133 (UniProt Q8WUM0) | inactive: 0.017 | inactive: 0.065 | inactive: 0.004 | inactive: -0.076 | inactive: -0.038 | inactive: 0 | inactive: -0.051 | inactive: -0.049 | inactive: 0.022 | inactive: -0.126 | inactive: 0.034 | inactive: 0.127 | inactive: -0.024 | inactive: -0.109 | inactive: -0.008 | inactive: 0.104 | inactive: -0.004 | inactive: 0.007 | inactive: 0.039 | inactive: -0.092
OLA1 (UniProt Q9NTK5) | inactive: -0.053 | inactive: 0.021 | inactive: -0.013 | inactive: -0.01 | inactive: -0.029 | inactive: -0.001 | inactive: 0.02 | inactive: -0.011 | inactive: -0.042 | inactive: 0.015 | inactive: 0.003 | inactive: 0.002 | inactive: -0.055 | inactive: -0.049 | inactive: 0.001 | inactive: 0.018 | inactive: 0.084 | inactive: -0.026 | inactive: -0.03 | inactive: -0.016
OTUD5 isoform 5 (UniProt Q96G74) | inactive: -0.064 | inactive: 0.044 | inactive: 0.02 | inactive: -0.044 | inactive: -0.039 | inactive: -0.033 | inactive: 0.035 | inactive: -0.151 | inactive: -0.031 | inactive: 0.062 | inactive: -0.009 | inactive: -0.013 | inactive: -0.017 | inactive: 0 | inactive: 0.016 | inactive: 0.017 | inactive: 0.044 | inactive: -0.004 | inactive: -0.081 | inactive: 0.227
OCIAD1 (UniProt Q9NX40) | inactive: -0.024 | inactive: -0.091 | inactive: 0.06 | inactive: 0.054 | inactive: 0.028 | inactive: 0.002 | inactive: 0.012 | inactive: 0.004 | inactive: 0.01 | inactive: 0.026 | inactive: -0.004 | inactive: -0.012 | inactive: -0.009 | inactive: 0.041 | inactive: -0.035 | inactive: -0.066 | inactive: 0.027 | inactive: -0.029 | inactive: -0.007 | inactive: -0.001
OGFOD1 (UniProt Q8N543) | inactive: -0.042 | inactive: -0.033 | inactive: -0.015 | inactive: 0.039 | inactive: -0.009 | inactive: -0.021 | inactive: 0.01 | inactive: 0.078 | inactive: -0.05 | inactive: -0.04 | inactive: 0.015 | inactive: 0.021 | inactive: -0.08 | inactive: -0.056 | inactive: -0.002 | inactive: 0.005 | inactive: 0.012 | inactive: 0.02 | inactive: -0.072 | inactive: -0.006
NUBP1 (UniProt P53384) | inactive: 0.008 | inactive: -0.054 | inactive: -0.051 | inactive: 0.013 | inactive: -0.081 | inactive: -0.021 | inactive: 0.068 | inactive: 0.07 | inactive: -0.078 | inactive: -0.001 | inactive: -0.069 | inactive: -0.032 | inactive: -0.114 | inactive: -0.068 | inactive: 0 | inactive: 0.053 | inactive: 0.057 | inactive: -0.045 | inactive: -0.027 | inactive: -0.004
NUDT21 (UniProt O43809) | inactive: 0.074 | inactive: -0.071 | inactive: 0.033 | active: -0.798 | inactive: 0.031 | inactive: 0.051 | inactive: 0.029 | inactive: -0.039 | inactive: -0.007 | inactive: -0.008 | inactive: -0.042 | inactive: -0.002 | inactive: 0.049 | inactive: -0.007 | inactive: 0.037 | inactive: -0.078 | inactive: 0.029 | inactive: -0.124 | inactive: 0.062 | inactive: -0.131
NUDT5 (UniProt Q9UKK9) | inactive: -0.035 | inactive: -0.036 | inactive: 0.039 | inactive: 0.018 | inactive: 0.055 | inactive: 0.018 | inactive: -0.011 | inactive: -0.054 | inactive: 0.002 | inactive: 0.017 | inactive: 0.061 | inactive: 0.026 | inactive: 0.014 | inactive: 0.023 | inactive: 0.007 | inactive: -0.047 | inactive: 0.037 | inactive: -0.001 | inactive: 0.019 | inactive: -0.025
NUP37 (UniProt Q8NFH4) | inactive: -0.037 | inactive: 0.036 | inactive: -0.003 | inactive: -0.015 | inactive: 0.048 | inactive: -0.009 | inactive: -0.013 | inactive: -0.001 | inactive: -0.039 | inactive: 0.014 | inactive: -0.025 | inactive: -0.041 | inactive: -0.045 | inactive: -0.037 | inactive: -0.004 | inactive: 0.046 | inactive: 0.055 | inactive: 0.041 | inactive: -0.103 | inactive: -0.029
NUDC (UniProt Q9Y266) | inactive: -0.034 | inactive: 0.012 | inactive: -0.013 | inactive: -0.012 | inactive: -0.017 | inactive: -0.018 | inactive: 0.063 | inactive: 0.012 | inactive: -0.006 | inactive: 0.053 | inactive: -0.044 | inactive: -0.039 | inactive: -0.084 | inactive: -0.06 | inactive: 0.009 | inactive: 0.018 | inactive: -0.051 | inactive: -0.01 | inactive: -0.055 | inactive: 0.025

2 entries drawn at random from those above, as already listed:
Target | log2 fold change (bafetinib) | log2 fold change [1] | log2 fold change (nilotinib) | log2 fold change [2] | log2 fold change (dasatinib) | log2 fold change [3] | log2 fold change [4] | log2 fold change [5] | log2 fold change (tipifarnib) | log2 fold change (mubritinib) | log2 fold change [6] | log2 fold change [7] | log2 fold change [8] | log2 fold change [9] | log2 fold change (entinostat) | log2 fold change (vorinostat) | log2 fold change (citarinostat) | log2 fold change (silmitasertib) | log2 fold change [10] | log2 fold change [11]
OLA1 (UniProt Q9NTK5) | inactive: -0.053 | inactive: 0.021 | inactive: -0.013 | inactive: -0.01 | inactive: -0.029 | inactive: -0.001 | inactive: 0.02 | inactive: -0.011 | inactive: -0.042 | inactive: 0.015 | inactive: 0.003 | inactive: 0.002 | inactive: -0.055 | inactive: -0.049 | inactive: 0.001 | inactive: 0.018 | inactive: 0.084 | inactive: -0.026 | inactive: -0.03 | inactive: -0.016
NUDC (UniProt Q9Y266) | inactive: -0.034 | inactive: 0.012 | inactive: -0.013 | inactive: -0.012 | inactive: -0.017 | inactive: -0.018 | inactive: 0.063 | inactive: 0.012 | inactive: -0.006 | inactive: 0.053 | inactive: -0.044 | inactive: -0.039 | inactive: -0.084 | inactive: -0.06 | inactive: 0.009 | inactive: 0.018 | inactive: -0.051 | inactive: -0.01 | inactive: -0.055 | inactive: 0.025
